From patent publication US20050137135A1 (priority 2002, published 2005)
For part of these data: At least one peptide structure holds a part that was inferred or is arguable (an end, a ring closure or a residue). For part of these data: At least one structure is not confirmed: it was looked up by name or label, or the drawing left a doubt. Ends that are not written are not given here.

How the values were obtained:
Assay type in all cases: cell-based
INS-1 (832/13) cells = assay: Cell survival during glucose deprivation (CYQUANT); settings: 0 mM glucose
Experimental: Cell passages 45-60 were used.
Cells were seeded into 96-well plates (5×10^4 cells/well) prior to experimentation. […] Cells were quantified using the CYQUANT™ assay system (Molecular Probes, Eugene, Oreg., USA) according to the manufacturers' protocol.
Cell survival was assessed in the presence of prolonged glucose deprivation.

[1] = tested on: caspase-3 activity in INS-1 (832/13) cells; assay: Caspase-3 activity induced by glucose deprivation; settings: 6 h; 100 nM GIP, 10 µM forskolin
Experimental: INS-1 cells (clone 832/13) seeded into 6-well plates were serum starved for 12-24 h and subjected to glucose deprivation (RPMI with 0.1% BSA) or treatment with 2 mM streptozotocin (STZ). […] Following treatment, caspase-3 activity was determined after 2, 6, or 24 h according to the manufacturers' protocol (Molecular Probes, Eugene, Oreg., USA). Caspase-3 activity/well was corrected for total protein content using the BCA protein assay (Pierce, Roxford, II, USA).

[2] = molecular target: T1, rat pancreatic islet (wild type) GIP-receptor (Rattus norvegicus, UniProt P43219); assay: cAMP production in CHO-K1 cells expressing the GIP-receptor (wtGIP-R1 cells); settings: basal cyclic AMP = 2.737 ± 0.079 fmol/1000 cells
T1 construct: expressed in transfected cells; host or cells: CHO-K1 (Chinese hamster ovary)
T1 sequence (P43219 19-455): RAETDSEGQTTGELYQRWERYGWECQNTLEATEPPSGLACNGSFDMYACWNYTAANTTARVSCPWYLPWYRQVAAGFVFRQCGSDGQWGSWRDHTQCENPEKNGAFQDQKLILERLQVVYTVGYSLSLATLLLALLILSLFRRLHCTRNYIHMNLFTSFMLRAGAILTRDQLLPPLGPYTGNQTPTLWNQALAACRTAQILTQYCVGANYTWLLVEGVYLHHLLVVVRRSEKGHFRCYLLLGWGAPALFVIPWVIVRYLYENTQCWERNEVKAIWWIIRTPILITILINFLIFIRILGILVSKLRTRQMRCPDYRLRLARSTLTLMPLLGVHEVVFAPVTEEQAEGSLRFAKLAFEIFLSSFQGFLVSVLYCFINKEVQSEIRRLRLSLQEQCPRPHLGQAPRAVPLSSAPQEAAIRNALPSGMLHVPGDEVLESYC
Experimental: Cells were cultured in DMEM/F12, supplemented with 10% newborn calf serum, 50 units/ml penicillin G, and 50 μg/ml streptomycin (Culture media and antibiotics from Gibco BRL, Life Technologies). Cells were grown in 75 cm^2 flasks until 80-90% confluent, when they were split and seeded onto 24 well plates at a density of 50,000 cells/well. Experiments were carried out 48 h later.
Cells were extracted with 70% ethanol and cAMP levels measured by radioimmunoassay (Biomedical Technologies, Stoughton, Mass.). Data are expressed as fmol/1000 cells or % maximal GIP1-42-stimulated cAMP production (inhibition experiments).

Row | Molecule | effect on cell survival during glucose deprivation (words) (INS-1 (832/13) cells) | 0 mM glucose induced caspase-3 activity [1] | effect on cell survival during glucose deprivation (words) (INS-1 (832/13) cells; listed as Wortmannin) | cAMP Production (Fold Basal) 10 μM ([2]; 10 μM peptide) [Fold Basal] | cAMP Production (Fold Basal) 20 μM ([2]; 20 μM peptide) [Fold Basal]
1 | C=C[C@@]1(C)CC(=O)[C@]2(O)[C@@]3(C)[C@@H](O)CCC(C)(C)[C@@H]3[C@H](O)[C@H](OC(C)=O)[C@@]2(C)O1 [forskolin] | mimicked the effects of GIP on cell survival | completely reversed | – | – | –
2 | COC[C@H]1OC(=O)c2coc3c2[C@@]1(C)C1=C(C3=O)[C@@H]2CCC(=O)[C@@]2(C)C[C@H]1OC(C)=O [wortmannin] | promoted cell loss | – | deleterious effects on cell survival | – | –
3 | YAEGTF-NH2 [GIP1-6a] | – | – | – | 1.27 ± 0.18 | 1.08 ± 0.03
